Laboratory results as given in patent publication US20150377879A1, “PEPTOIDS THAT BIND SPECIFIC ANTIGENS” (THE SCRIPPS RESEARCH INSTITUTE, priority 2013, published 2015).
At least one compound was matched to its structure with a doubt left.

How the values were obtained:
[1] = system: NMO-specific antibodies; experiment: Peptoid microarray hybridized with individual human serum samples (validation sera and first blinded set of 15); format: binding
[2] = system: anti-AQP4 antibodies; experiment: Antibody depletion experiment (AQP4- or BSA-immobilized column), then microarray; format: binding, human; conditions: NMO serum samples or monoclonal anti-AQP4 rAb (FIG. 3, FIG. 7)
[3] = system: serum antibodies of patients with MS, lupus, narcolepsy, Alzheimer's disease and normal controls; experiment: Peptoid microarray with sera from other diseases (MS, lupus, narcolepsy, Alzheimer's disease) and healthy controls; format: binding, human; conditions: serum from three MS patients (FIG. 3)

## O=[N+]([O-])c1ccc(O)c([N+](=O)[O-])c1 [DNP, dinitrophenol]
[1]; all of the samples analyzed in the study
  signal on the array, negative and positive controls: high
[1]; serum from a control patient not suffering from NMO (FIG. 2A)
  signal on the array: strong signal
[2]
  signal after passage over AQP4-immobilized column: unaffected
  signal after passage over BSA-immobilized control column: unaffected
[3]
  signal on the array: strong
